The text below walks through data of PMC10866661.

No constants are given. Whether binding was seen depends on the method and setting. In cells and extracts the contact can be indirect. Some entries that bind do so weakly or less than the wild type. Where a sequence is shown, tags or fusion partners need not be part of it.

The target of experiment [1] is T1, FLAG-tagged wild-type coatomer protein complex subunit α (COPA) (human) (UniProt P53621).
T1 sequence: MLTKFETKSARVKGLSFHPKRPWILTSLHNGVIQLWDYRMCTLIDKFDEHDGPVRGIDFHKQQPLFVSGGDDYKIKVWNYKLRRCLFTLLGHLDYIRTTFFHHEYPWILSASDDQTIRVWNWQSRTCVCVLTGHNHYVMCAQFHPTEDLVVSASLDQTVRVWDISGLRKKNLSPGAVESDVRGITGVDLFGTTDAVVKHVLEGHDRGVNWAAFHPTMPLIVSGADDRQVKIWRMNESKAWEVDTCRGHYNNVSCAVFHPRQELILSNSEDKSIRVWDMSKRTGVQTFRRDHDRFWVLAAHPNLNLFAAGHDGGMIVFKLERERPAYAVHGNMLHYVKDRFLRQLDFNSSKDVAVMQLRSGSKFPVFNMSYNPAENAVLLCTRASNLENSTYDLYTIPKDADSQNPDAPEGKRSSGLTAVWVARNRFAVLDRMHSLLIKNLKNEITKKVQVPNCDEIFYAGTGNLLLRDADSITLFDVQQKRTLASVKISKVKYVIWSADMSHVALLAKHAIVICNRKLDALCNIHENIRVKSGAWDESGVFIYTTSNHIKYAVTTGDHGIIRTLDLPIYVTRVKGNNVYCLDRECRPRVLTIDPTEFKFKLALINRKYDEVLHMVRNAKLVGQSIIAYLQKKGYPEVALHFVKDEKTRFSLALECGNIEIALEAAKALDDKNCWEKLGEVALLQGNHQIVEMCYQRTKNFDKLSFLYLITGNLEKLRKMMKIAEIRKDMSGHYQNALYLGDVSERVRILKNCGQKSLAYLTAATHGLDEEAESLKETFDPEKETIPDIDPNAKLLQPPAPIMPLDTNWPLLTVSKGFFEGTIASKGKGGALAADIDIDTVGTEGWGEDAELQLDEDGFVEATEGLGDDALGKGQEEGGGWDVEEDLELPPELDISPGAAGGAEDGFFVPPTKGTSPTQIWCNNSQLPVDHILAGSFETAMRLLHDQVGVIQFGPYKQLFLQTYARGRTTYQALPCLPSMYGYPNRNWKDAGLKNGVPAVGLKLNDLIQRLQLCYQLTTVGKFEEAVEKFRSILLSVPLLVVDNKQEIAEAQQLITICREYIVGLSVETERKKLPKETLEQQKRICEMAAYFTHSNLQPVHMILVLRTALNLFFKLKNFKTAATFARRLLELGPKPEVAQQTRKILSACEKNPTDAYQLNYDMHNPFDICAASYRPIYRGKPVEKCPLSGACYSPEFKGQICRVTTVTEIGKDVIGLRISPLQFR
The experiment can be described thus: co-IP; HEK293T cells cotransfected with FLAG-tagged WT or mutant COPA, COPB2 and COPE; whole-cell extract 48 h after transfection incubated overnight with anti-DDK (FLAG) antibody, Protein G magnetic beads, washes with PBS 0.1% Tween-20; immunoblot of eluate and input for FLAG, COPB2 and COPE. (In general: In western blotting, separated proteins are transferred to a membrane and probed.)

The target of experiment [2] is T2, FLAG-tagged COPA p.R1142X (truncated C-terminal domain mutant) (human) (UniProt P53621).
T2 sequence: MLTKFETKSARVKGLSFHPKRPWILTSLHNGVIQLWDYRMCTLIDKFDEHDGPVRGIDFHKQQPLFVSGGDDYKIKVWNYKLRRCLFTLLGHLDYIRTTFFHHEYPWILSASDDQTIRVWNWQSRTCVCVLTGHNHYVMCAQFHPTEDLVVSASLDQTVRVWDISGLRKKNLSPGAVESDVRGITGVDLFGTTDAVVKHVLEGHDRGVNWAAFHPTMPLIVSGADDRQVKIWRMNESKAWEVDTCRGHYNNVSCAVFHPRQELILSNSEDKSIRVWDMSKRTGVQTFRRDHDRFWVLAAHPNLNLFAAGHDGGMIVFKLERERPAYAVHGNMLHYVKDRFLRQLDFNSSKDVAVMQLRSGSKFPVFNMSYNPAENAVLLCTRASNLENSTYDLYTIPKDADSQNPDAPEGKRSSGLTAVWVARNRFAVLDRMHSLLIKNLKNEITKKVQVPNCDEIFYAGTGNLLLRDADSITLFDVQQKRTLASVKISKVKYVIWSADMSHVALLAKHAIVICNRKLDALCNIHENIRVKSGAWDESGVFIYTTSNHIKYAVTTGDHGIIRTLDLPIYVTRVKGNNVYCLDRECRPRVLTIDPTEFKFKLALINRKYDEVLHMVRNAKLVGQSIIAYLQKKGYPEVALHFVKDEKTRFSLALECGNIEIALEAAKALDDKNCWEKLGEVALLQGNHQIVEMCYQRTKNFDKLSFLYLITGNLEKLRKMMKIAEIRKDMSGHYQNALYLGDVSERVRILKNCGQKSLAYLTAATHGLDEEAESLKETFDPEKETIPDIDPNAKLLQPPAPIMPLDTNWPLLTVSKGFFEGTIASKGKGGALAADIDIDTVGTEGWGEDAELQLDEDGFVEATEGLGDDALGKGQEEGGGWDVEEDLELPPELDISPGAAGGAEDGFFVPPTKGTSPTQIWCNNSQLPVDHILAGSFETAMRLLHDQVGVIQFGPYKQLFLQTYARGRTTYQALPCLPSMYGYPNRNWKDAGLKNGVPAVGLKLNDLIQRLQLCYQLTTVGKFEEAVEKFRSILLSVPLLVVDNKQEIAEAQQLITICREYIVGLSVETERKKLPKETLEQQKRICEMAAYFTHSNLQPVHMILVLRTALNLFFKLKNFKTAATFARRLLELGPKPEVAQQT
Described as above.

B1: COPB2 (protein, UniProt P35606 1-906)
chain: MPLRLDIKRKLTARSDRVKSVDLHPTEPWMLASLYNGSVCVWNHETQTLVKTFEVCDLPVRAAKFVARKNWVVTGADDMQIRVFNYNTLERVHMFEAHSDYIRCIAVHPTQPFILTSSDDMLIKLWDWDKKWSCSQVFEGHTHYVMQIVINPKDNNQFASASLDRTIKVWQLGSSSPNFTLEGHEKGVNCIDYYSGGDKPYLISGADDRLVKIWDYQNKTCVQTLEGHAQNVSCASFHPELPIIITGSEDGTVRIWHSSTYRLESTLNYGMERVWCVASLRGSNNVALGYDEGSIIVKLGREEPAMSMDANGKIIWAKHSEVQQANLKAMGDAEIKDGERLPLAVKDMGSCEIYPQTIQHNPNGRFVVVCGDGEYIIYTAMALRNKSFGSAQEFAWAHDSSEYAIRESNSIVKIFKNFKEKKSFKPDFGAESIYGGFLLGVRSVNGLAFYDWDNTELIRRIEIQPKHIFWSDSGELVCIATEESFFILKYLSEKVLAAQETHEGVTEDGIEDAFEVLGEIQEIVKTGLWVGDCFIYTSSVNRLNYYVGGEIVTIAHLDRTMYLLGYIPKDNRLYLGDKELNIISYSLLVSVLEYQTAVMRRDFSMADKVLPTIPKEQRTRVAHFLEKQGFKQQALTVSTDPEHRFELALQLGELKIAYQLAVEAESEQKWKQLAELAISKCQFGLAQECLHHAQDYGGLLLLATASGNANMVNKLAEGAERDGKNNVAFMSYFLQGKVDACLELLIRTGRLPEAAFLARTYLPSQVSRVVKLWRENLSKVNQKAAESLADPTEYENLFPGLKEAFVVEEWVKETHADLWPAKQYPLVTPNEERNVMEEGKDFQPSRSTAQQELDGKPASPTPVIVASHTANKEEKSLLELEVDLDNLELEDIDTTDINLDEDILDD
Turning to B1, the binding result in experiment [1] and in experiment [2] was “binds” in each case.
